In patent publication US20250084056A1, “SUBSTITUTED OXOISOINDOLINYL PIPERIDINE-2,6-DIONE COMPOUNDS” (BRISTOL-MYERS SQUIBB COMPANY, priority 2023, published 2025):
Some entries share one result that the patent states for a list of compounds.

Chains of the proteins cited; added tags and fusions are not shown. Lines headed by an entry give the natural chain unless they say otherwise; changes in a name come on top.
UniProt P24864, whole entry: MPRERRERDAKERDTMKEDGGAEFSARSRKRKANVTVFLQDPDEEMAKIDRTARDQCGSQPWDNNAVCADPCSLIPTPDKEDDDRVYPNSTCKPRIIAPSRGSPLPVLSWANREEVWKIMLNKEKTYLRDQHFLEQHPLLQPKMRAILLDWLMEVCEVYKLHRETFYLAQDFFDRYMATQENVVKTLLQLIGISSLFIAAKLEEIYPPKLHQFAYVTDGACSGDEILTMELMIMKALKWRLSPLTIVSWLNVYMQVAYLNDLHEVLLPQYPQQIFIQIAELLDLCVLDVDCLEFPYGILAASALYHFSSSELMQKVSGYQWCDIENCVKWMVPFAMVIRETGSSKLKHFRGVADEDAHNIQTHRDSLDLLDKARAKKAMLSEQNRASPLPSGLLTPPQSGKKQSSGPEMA
UniProt Q96SW2: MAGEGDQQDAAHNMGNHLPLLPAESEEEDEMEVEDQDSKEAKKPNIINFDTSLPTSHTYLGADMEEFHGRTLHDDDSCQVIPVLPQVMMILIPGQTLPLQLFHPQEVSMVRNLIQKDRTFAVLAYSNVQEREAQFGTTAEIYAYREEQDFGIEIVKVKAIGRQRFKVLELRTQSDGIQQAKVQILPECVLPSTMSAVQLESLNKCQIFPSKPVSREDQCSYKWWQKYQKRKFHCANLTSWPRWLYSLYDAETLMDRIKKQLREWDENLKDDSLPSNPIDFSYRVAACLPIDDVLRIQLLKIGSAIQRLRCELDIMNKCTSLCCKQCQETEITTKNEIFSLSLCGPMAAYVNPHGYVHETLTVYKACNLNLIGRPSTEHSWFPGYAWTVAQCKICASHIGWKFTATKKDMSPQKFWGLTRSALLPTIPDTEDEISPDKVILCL

These compounds were tested against Cyclin E1 (Homo sapiens, UniProt P24864+Q96SW2) (assay: Cyclin E1 Cellular Degradation Assay (MSD)). Conditions: degradation of Cyclin E1 over degradation of GSPT1, Table 18.
Type: cell-based
Set-up: endogenous in cells; host or cells: OVCAR3
Method in brief: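 Cyclin E1 remaining after 24 h compound exposure of OVCAR3 cells was quantified in lysates by electrochemiluminescent MSD sandwich assay. DC50 (50% response concentration) and Dmax (maximum response) were calculated, with 110% response set by a reference compound at […].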

selectivity, ratio of GSPT1 DC50/Cyclin E1 DC50, at least 9:
COc1c(COC(=O)Nc2ccc(Oc3ccc(Cl)c(Cl)c3)cc2F)ccc2c1C(=O)N(C1CCC(=O)NC1=O)C2 (stereo not shown) [Example 117, [2-(2,6-dioxopiperidin-3-yl)-4-methoxy-3-oxo-2,3-dihydro-1H-isoindol-5-yl]methyl N-[4-(3,4-dichlorophenoxy)-2-fluorophenyl]carbamate]
COc1c(COC(=O)Nc2ccc(Oc3cc(Cl)cc(Cl)c3)cc2F)ccc2c1C(=O)N(C1CCC(=O)NC1=O)C2 (stereo not shown) [Example 118, [2-(2,6-dioxopiperidin-3-yl)-4-methoxy-3-oxo-2,3-dihydro-1H-isoindol-5-yl]methyl N-[4-(3,5-dichlorophenoxy)-2-fluorophenyl]carbamate]
CC(C)Oc1c(COC(=O)Nc2ccc(Oc3ccc(F)c(F)c3)cc2F)ccc2c1C(=O)N(C1CCC(=O)NC1=O)C2 (stereo not shown) [Example 119, [2-(2,6-dioxopiperidin-3-yl)-3-oxo-4-(propan-2-yloxy)-2,3-dihydro-1H-isoindol-5-yl]methyl N-[4-(3,4-difluorophenoxy)-2-fluorophenyl]carbamate]
CC(C)Oc1c(COC(=O)Nc2ccc(Oc3cccc(F)c3F)cc2)ccc2c1C(=O)N(C1CCC(=O)NC1=O)C2 (stereo not shown) [Example 120, [2-(2,6-dioxopiperidin-3-yl)-3-oxo-4-(propan-2-yloxy)-2,3-dihydro-1H-isoindol-5-yl]methyl N-[4-(2,3-difluorophenoxy)phenyl]carbamate]
CC(C)Oc1c(COC(=O)Nc2ccc(Oc3ccccc3F)cc2)ccc2c1C(=O)N(C1CCC(=O)NC1=O)C2 (stereo not shown) [Example 121, [2-(2,6-dioxopiperidin-3-yl)-3-oxo-4-(propan-2-yloxy)-2,3-dihydro-1H-isoindol-5-yl]methyl N-[4-(2-fluorophenoxy)phenyl]carbamate]
CC(C)Oc1c(COC(=O)Nc2ccc(Oc3ccccc3Cl)cc2)ccc2c1C(=O)N(C1CCC(=O)NC1=O)C2 (stereo not shown) [Example 122, [2-(2,6-dioxopiperidin-3-yl)-3-oxo-4-(propan-2-yloxy)-2,3-dihydro-1H-isoindol-5-yl]methyl N-[4-(2-chlorophenoxy)phenyl]carbamate]
CC(C)Oc1c(COC(=O)Nc2ccc(Oc3cccc(F)c3)cc2)ccc2c1C(=O)N(C1CCC(=O)NC1=O)C2 (stereo not shown) [Example 123, [2-(2,6-dioxopiperidin-3-yl)-3-oxo-4-(propan-2-yloxy)-2,3-dihydro-1H-isoindol-5-yl]methyl N-[4-(3-fluorophenoxy)phenyl]carbamate]
CC(C)Oc1c(COC(=O)Nc2ccc(Oc3ccc(F)cc3Cl)cc2)ccc2c1C(=O)N(C1CCC(=O)NC1=O)C2 (stereo not shown) [Example 124, [2-(2,6-dioxopiperidin-3-yl)-3-oxo-4-(propan-2-yloxy)-2,3-dihydro-1H-isoindol-5-yl]methyl N-[4-(2-chloro-4-fluorophenoxy)phenyl]carbamate]
O=C1CCC(N2Cc3ccc(COC(=O)Nc4ccc(Oc5ccc(F)c(F)c5)cc4)c(OC4CCC4)c3C2=O)C(=O)N1 (stereo not shown) [Example 126, [4-cyclobutoxy-2-(2,6-dioxopiperidin-3-yl)-3-oxo-2,3-dihydro-1H-isoindol-5-yl]methyl N-[4-(3,4-difluorophenoxy)phenyl]carbamate]
O=C1CCC(N2Cc3ccc(COC(=O)Nc4ccc(Oc5ccccc5Cl)cc4)c(OC4CCC4)c3C2=O)C(=O)N1 (stereo not shown) [Example 127, [4-cyclobutoxy-2-(2,6-dioxopiperidin-3-yl)-3-oxo-2,3-dihydro-1H-isoindol-5-yl]methyl N-[4-(2-chlorophenoxy)phenyl]carbamate]
